# Library screen at single concentrations

Source: ChEMBL document CHEMBL3988442, “University of Dundee, Small-Polar-MMV Screening Library” (2021).

The filed quantity is “Percent Effect” (%).
The controls that fix the scale are not given in the record; negative values are as filed.
Compounds were drawn at random from those tested, without regard to their results.

Mtb cholesterol medium: 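Whole-cell growth test on Mycobacterium tuberculosis, read after 4 days in a medium based on cholesterol and the lipid DPPC; the read-out is not stated. Tested at 500 µM. Higher reads as more growth inhibition (inferred: compounds with an IC50 in retests scored well above the rest). About 18,000 compounds were tested under these conditions; 5% (about 900) showed 50% or more at least once.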
Mtb glucose medium: 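Phenotypic screen: M. tuberculosis growth, glucose 7H9 medium, 3 days; the read-out is not stated. Concentration: 500 µM. Direction is inferred from retests: higher values go with more growth inhibition. About 18,000 compounds were tested under these conditions; 7.9% (about 1,400) showed 50% or more at least once.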

structure | Mtb cholesterol medium | Mtb glucose medium
C=C(C)COc1ccccc1CNCCNC(C)=O | 6.556 | 21.5
O=C(CCn1cccn1)N1CCCCCC1 | 49.16 | 51.58
NC(=O)NC(=O)CN1CCOC(c2ccc(F)cc2)C1 (centres undefined) | -6.585 | 0.7274
Cc1cccc(OC(C)CN)c1 (centres undefined) | -3.017 | 5.555
COc1ccc(C(C)=O)cc1CN1CCCC1 | -20.9 | -14.44
CCOC(=O)c1cnc(SCC(=O)NC2CC2)nc1N | 3.528 | -0.05093
Nc1nc(-c2ccc3c(c2)CCCC(=O)N3)cs1 | 28.93 | 47.58
c1cc2nnnn2nc1NCCN1CCCCCC1 | -13.91 | 0.489
CN(c1cccc(C(N)=O)c1)S(=O)(=O)c1ccccc1 | 25.83 | 35.49
O=C1COc2cc(C(=O)NCc3ccco3)ccc2N1 | 12.2 | 40.05
CCOc1ccc(CNS(=O)(=O)N(C)C)cc1C | 54.97 | 62.75
CN(C)C(=O)CN1CCOC(c2ccccc2)C1 (centres undefined) | 16.17 | 24.16
O=C(COc1ccccc1)NCc1c[nH]nn1 | 7.073 | 31.58
COc1ccc(Cl)cc1NC(=O)NC1CCS(=O)(=O)C1 (centres undefined) | 15.19 | 46.05
NCCNS(=O)(=O)c1ccc(F)c(Br)c1 | 20.92 | 50.4
CNS(=O)(=O)CCCNC(C)(C)c1nccs1 | 9.661 | 7.479
OC1(CN2CCCCC2)CCN(Cc2ncc[nH]2)C1 (centres undefined) | 8.479 | 24.51
c1ncc(CN2CCOCC3(CCOCC3)C2)s1 | 2.748 | 9.013
CC(C)n1ncc(C(=O)NCc2ccco2)c1N | 8.323 | 28.62
CNS(=O)(=O)c1ccc2c(c1)N(C(=O)C1(N)CC1)CC2 | 9.856 | 1.711
Cc1noc(C(O)c2ccccc2)n1 (centres undefined) | 8.6 | 8.006
CN(C)C(=O)C1CCCN1CCCN (centres undefined) | -20.13 | -19.18
CCCC(=O)Nc1ccc(N2CCN(CC)CC2)cc1 | 2.359 | 21.66
CCN1CCN(CC(=O)Nc2cc(C)nn2C)CC1 | 5.053 | 6.544
CCCNC(=O)c1cccc(NCCCO)c1 | 12.49 | 18.04
CCCS(=O)(=O)NCCN1CCN(C)CC1 | -4.862 | -2.886
CCC(=O)c1cccc(S(=O)(=O)NCC(C)(C)N)c1 | 25.27 | 30.5
Cc1cc(NC(=O)NCc2ccccc2O)n(C)n1 | -2.297 | 9.152
NCc1cc(Oc2ccc(Cl)cc2)ccn1 | -7.693 | -2.565
COc1ncccc1Cn1ccc2ncccc2c1=O | 8.83 | 20.47
Cn1ccnc1CN1CCN(Cc2ccccn2)CC1 | -3.42 | 20.47
Cc1ccc(OCC(=O)NCCO)c(Br)c1 | 34.23 | 48.58
CC(C)n1cnnc1CCNC(=O)C1(C)CCCCO1 (centres undefined) | 6.512 | -2.071
Cc1ccc(C)c(OCCC(=O)NCCCC(N)=O)c1 | -12.98 | 15.77
COc1cc(F)c(S(=O)(=O)N(C)CC(N)=O)cc1OC | -2.441 | 7.468
CCn1cnnc1CCNC(=O)c1occc1C | 5.71 | 16.75
COc1ccccc1NC(=O)NCCN(C)C | -2.997 | -3.281
CCOc1ncccc1CN(C)C(=O)c1ccco1 | 18.97 | 32.41
COCC(C)(O)CCN (centres undefined) | 1.304 | 4.407
NC1CCN(C(=O)c2ccccc2C(F)(F)F)CC1 | 4.368 | 4.041
Cc1cc(C)cc(NC(=O)CNCCCO)c1 | 35.22 | 50.04
Cc1nc(C)c(C)c(NCC(O)c2ccccn2)n1 (centres undefined) | -4.91 | -6.008
CN(C)C(CNS(=O)(=O)c1c[nH]cn1)C1CCCCC1 (centres undefined) | -11.59 | 7.338
CN(CCN1CCCC1=O)c1ncccc1I | -1.786 | 30.37
CC(C)(O)C(C)(C)CN | -2.879 | -0.05392
CN1CCN(Cc2ccc(N(C)C)nc2)CCC1=O | -8.162 | -14.37
O=C(NC1CCCSC1)N[C@H](CO)Cc1ccccc1 (some centres undefined) | -7.021 | -5.996
CN1CCN(S(C)(=O)=O)Cc2ccccc21 | -13.07 | 11.02
O=C1NC(CC(=O)N2CCSCC2)c2ccccc21 (centres undefined) | -7.28 | 16.53
O=C1NCCNC1c1ccccc1 (centres undefined) | 48.17 | 47.05

Repeated from the top, 6 entries:

| structure | Mtb cholesterol medium | Mtb glucose medium |
|---|---|---|
| `C=C(C)COc1ccccc1CNCCNC(C)=O` | 6.556 | 21.5 |
| `O=C(CCn1cccn1)N1CCCCCC1` | 49.16 | 51.58 |
| `NC(=O)NC(=O)CN1CCOC(c2ccc(F)cc2)C1` (centres undefined) | -6.585 | 0.7274 |
| `Cc1cccc(OC(C)CN)c1` (centres undefined) | -3.017 | 5.555 |
| `COc1ccc(C(C)=O)cc1CN1CCCC1` | -20.9 | -14.44 |
| `CCOC(=O)c1cnc(SCC(=O)NC2CC2)nc1N` | 3.528 | -0.05093 |